The exact form of at least one protein or probe is not confirmed. For some assays here: A negative result means that nothing was seen under these conditions. For some assays here: Protein sequences can lack the tags named with them.
How the values were obtained:
GST = test: EMSA; conditions: LightShift Chemiluminescent EMSA Kit (Thermo 20148) per manufacturer; pH and temperature not stated; recombinant protein; protein details: GST; label: 5'-biotin on strand 1
GST-IPA1 (Oryza sativa) = molecular target: T1, GST-IPA1 (Oryza sativa) (UniProt Q7EXZ2); test: competition with a labelled probe; conditions: increasing unlabeled P2 against biotin-P2; LightShift Chemiluminescent EMSA Kit (Thermo 20148) per manufacturer; pH and temperature not stated; recombinant protein; residues 1-417; protein details: N-terminal GST (pGEX-4t-1)
T1 sequence (looked up): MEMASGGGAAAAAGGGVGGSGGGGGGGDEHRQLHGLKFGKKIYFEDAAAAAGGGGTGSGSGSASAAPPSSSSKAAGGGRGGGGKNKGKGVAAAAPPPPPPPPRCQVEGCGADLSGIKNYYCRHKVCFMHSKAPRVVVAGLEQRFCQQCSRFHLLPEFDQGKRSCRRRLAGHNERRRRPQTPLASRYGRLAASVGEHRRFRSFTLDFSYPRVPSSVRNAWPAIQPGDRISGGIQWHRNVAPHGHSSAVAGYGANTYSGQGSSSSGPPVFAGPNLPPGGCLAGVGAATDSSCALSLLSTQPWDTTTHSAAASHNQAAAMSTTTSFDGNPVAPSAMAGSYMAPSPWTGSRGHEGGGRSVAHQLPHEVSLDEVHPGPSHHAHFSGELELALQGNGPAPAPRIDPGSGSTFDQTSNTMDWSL

Row | Sequence | binding result (GST) | binding result (GST-IPA1 (Oryza sativa))
1 | TACCTAGGTTTTAAGTTATAGTACTTACAATTTTTTGATGAG (double strand) [Biotin-P2 (OsCBF3 promoter)] | no binding | –
2 | TACCTAGGTTTTAAGTTATAGTACTTACAATTTTTTGATGAG (double strand) [P2-Cold (unlabeled competitor)] | – | binds

From PMC9325753, “Chilling-induced phosphorylation of IPA1 by OsSAPK6 activates chilling tolerance responses in rice”
